These are yes or no findings as the source states them, for the method shown. Binding seen in cells or lysates may run through a third protein. Binding can be weak; no strength is given. Sequences can lack the tags named with a protein.
Target: T1, human wild-type CERS6 tagged with mycDDK at COOH terminus (human) (UniProt Q6ZMG9)
T1 sequence: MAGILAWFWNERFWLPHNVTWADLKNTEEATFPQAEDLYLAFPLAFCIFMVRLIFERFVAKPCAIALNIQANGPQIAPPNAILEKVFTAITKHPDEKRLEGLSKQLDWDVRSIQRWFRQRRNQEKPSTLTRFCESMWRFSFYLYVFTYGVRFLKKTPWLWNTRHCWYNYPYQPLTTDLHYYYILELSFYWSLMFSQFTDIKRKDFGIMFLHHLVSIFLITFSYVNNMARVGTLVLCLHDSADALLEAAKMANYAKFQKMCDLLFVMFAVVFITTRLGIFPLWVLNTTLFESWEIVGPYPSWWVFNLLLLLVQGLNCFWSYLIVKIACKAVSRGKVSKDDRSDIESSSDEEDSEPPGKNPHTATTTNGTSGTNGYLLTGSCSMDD
Test: co-IP; HEK293FT cells transfected with CERS6-mycDDK and Fas-HA or Fas-HA mutants; 1000 µg lysate on anti-FLAG-M2 affinity gel overnight at 4 °C, elution with 3× FLAG peptide; immunoblot

Protein sequences, listed by entry. Tags and fused reporters are not part of them. Lines headed by an entry give the natural chain unless they say otherwise; changes in a name come on top.
UniProt P25445: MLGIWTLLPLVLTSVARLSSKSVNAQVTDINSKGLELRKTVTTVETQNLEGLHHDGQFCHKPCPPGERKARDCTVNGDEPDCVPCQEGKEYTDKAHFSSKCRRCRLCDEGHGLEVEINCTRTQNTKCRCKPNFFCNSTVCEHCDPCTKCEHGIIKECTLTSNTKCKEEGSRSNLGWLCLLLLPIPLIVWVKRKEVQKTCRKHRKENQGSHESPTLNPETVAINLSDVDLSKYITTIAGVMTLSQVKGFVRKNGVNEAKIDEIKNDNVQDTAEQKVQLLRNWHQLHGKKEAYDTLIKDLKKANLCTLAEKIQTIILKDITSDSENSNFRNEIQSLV

FAS-HA with deletion of the death domain only (from UniProt P25445) (receptor)
binding: binds
